# Results: the supplement of paper PMC8728848
# The other results are listed elsewhere or left out.
# B1: SUN4 (Saccharomyces cerevisiae), P53616 (protein)
# chain: MGSSHHHHHHSSGLVPRGSHNGSIYGDLADFSGPYEKFEDGTIPCGQFPSGQGVIPISWLDEGGWSGVENTDTSTGGSCKEGSYCSYACQPGMSKTQWPSDQPSDGRSIGGLLCKDGYLYRSNTDTDYLCEWGVDAAYVVSELSNDVAICRTDYPGTENMVIPTYVQAGDSLPLTVVDQDTYYTWQGLKTSAAYYVNNAGISVEDACVWGSSSSGVGNWAPLNFGAGSSDGVAYLSLIPNPNNGNALNFNVKIVAADDSSTVNGECIYENGSFSGGSDGCTVSVTAGKAKFVLYN
# Legend:
# Assay in all cases: glycan array binding signal (z-score within array); higher = stronger binding
# Settings in all cases: glycan notation: IUPAC condensed, linker removed; mutation: Q318A
# [1] = target: Gal(b1-4)GlcNAc(b1-3)Gal(b1-3)GlcNAc
# How it was run: (§1)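 The binding signal is a Z-score computed within each array and averaged over linkers. Arrays of the same protein sequence at different concentrations or buffers were also averaged together. Data originate from 3228 arrays in the Consortium for Functional Glycomics database, kept only where the protein sequence was available.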
# [2] = target: Gal(b1-4)GlcNAc(b1-3)Gal(b1-4)Glc
# How it was run: as §1
# [3] = target: Gal(b1-4)GlcNAc(b1-3)Gal(b1-4)GlcNAc
# How it was run: as §1
# [4] = target: Gal(b1-4)GlcNAc(b1-3)Gal(b1-4)GlcNAc(b1-2)Man(a1-3)[Gal(b1-4)GlcNAc(b1-3)Gal(b1-4)GlcNAc(b1-2)Man(a1-6)]Man(b1-4)GlcNAc(b1-4)GlcNAc
# How it was run: as §1
# [5] = target: Gal(b1-4)GlcNAc(b1-3)Gal(b1-4)GlcNAc(b1-2)Man(a1-3)[Gal(b1-4)GlcNAc(b1-3)Gal(b1-4)GlcNAc(b1-2)Man(a1-6)]Man(b1-4)GlcNAc(b1-4)[Fuc(a1-6)]GlcNAc
# How it was run: as §1
# [6] = target: Gal(b1-4)GlcNAc(b1-3)Gal(b1-4)GlcNAc(b1-2)[Gal(b1-4)GlcNAc(b1-3)Gal(b1-4)GlcNAc(b1-6)]Man(a1-6)[Gal(b1-4)GlcNAc(b1-3)Gal(b1-4)GlcNAc(b1-2)Man(a1-3)]Man(b1-4)GlcNAc(b1-4)GlcNAc
# How it was run: as §1
# [7] = target: Gal(b1-4)GlcNAc(b1-3)Gal(b1-4)GlcNAc(b1-2)[Gal(b1-4)GlcNAc(b1-3)Gal(b1-4)GlcNAc(b1-6)]Man(a1-6)[Gal(b1-4)GlcNAc(b1-3)Gal(b1-4)GlcNAc(b1-2)Man(a1-3)]Man(b1-4)GlcNAc(b1-4)[Fuc(a1-6)]GlcNAc
# How it was run: as §1
# [8] = target: Gal(b1-4)GlcNAc(b1-3)Gal(b1-4)GlcNAc(b1-3)Gal(b1-4)GlcNAc
# How it was run: as §1
# [9] = target: Gal(b1-4)GlcNAc(b1-3)Gal(b1-4)GlcNAc(b1-3)Gal(b1-4)GlcNAc(b1-2)Man(a1-3)[Gal(b1-4)GlcNAc(b1-3)Gal(b1-4)GlcNAc(b1-3)Gal(b1-4)GlcNAc(b1-2)Man(a1-6)]Man(b1-4)GlcNAc(b1-4)GlcNAc
# How it was run: as §1
# [10] = target: Gal(b1-4)GlcNAc(b1-3)Gal(b1-4)GlcNAc(b1-3)Gal(b1-4)GlcNAc(b1-2)Man(a1-3)[Gal(b1-4)GlcNAc(b1-3)Gal(b1-4)GlcNAc(b1-3)Gal(b1-4)GlcNAc(b1-2)Man(a1-6)]Man(b1-4)GlcNAc(b1-4)[Fuc(a1-6)]GlcNAc
# How it was run: as §1
# [11] = target: Gal(b1-4)GlcNAc(b1-3)Gal(b1-4)GlcNAc(b1-3)Gal(b1-4)GlcNAc(b1-2)[Gal(b1-4)GlcNAc(b1-3)Gal(b1-4)GlcNAc(b1-3)Gal(b1-4)GlcNAc(b1-6)]Man(a1-6)[Gal(b1-4)GlcNAc(b1-3)Gal(b1-4)GlcNAc(b1-3)Gal(b1-4)GlcNAc(b1-2)Man(a1-3)]Man(b1-4)GlcNAc(b1-4)[Fuc(a1-6)]GlcNAc
# How it was run: as §1
# [12] = target: Gal(b1-4)GlcNAc(b1-3)Gal(b1-4)GlcNAc(b1-3)Gal(b1-4)GlcNAc(b1-3)Gal(b1-4)GlcNAc(b1-2)Man(a1-3)[Gal(b1-4)GlcNAc(b1-3)Gal(b1-4)GlcNAc(b1-3)Gal(b1-4)GlcNAc(b1-3)Gal(b1-4)GlcNAc(b1-2)Man(a1-6)]Man(b1-4)GlcNAc(b1-4)GlcNAc
# How it was run: as §1
# [13] = target: Gal(b1-4)GlcNAc(b1-3)Gal(b1-4)GlcNAc(b1-3)Gal(b1-4)GlcNAc(b1-3)Gal(b1-4)GlcNAc(b1-2)Man(a1-3)[Gal(b1-4)GlcNAc(b1-3)Gal(b1-4)GlcNAc(b1-3)Gal(b1-4)GlcNAc(b1-3)Gal(b1-4)GlcNAc(b1-2)Man(a1-6)]Man(b1-4)GlcNAc(b1-4)[Fuc(a1-6)]GlcNAc
# How it was run: as §1
# [14] = target: Gal(b1-4)GlcNAc(b1-3)Gal(b1-4)GlcNAc(b1-3)Gal(b1-4)GlcNAc(b1-3)Gal(b1-4)GlcNAc(b1-2)[Gal(b1-4)GlcNAc(b1-3)Gal(b1-4)GlcNAc(b1-3)Gal(b1-4)GlcNAc(b1-3)Gal(b1-4)GlcNAc(b1-6)]Man(a1-6)[Gal(b1-4)GlcNAc(b1-3)Gal(b1-4)GlcNAc(b1-3)Gal(b1-4)GlcNAc(b1-3)Gal(b1-4)GlcNAc(b1-2)Man(a1-3)]Man(b1-4)GlcNAc(b1-4)[Fuc(a1-6)]GlcNAc
# How it was run: as §1
# [15] = target: Gal(b1-4)GlcNAc(b1-3)Gal(b1-4)GlcNAc(b1-3)Gal(b1-4)GlcNAc(b1-3)Gal(b1-4)GlcNAc(b1-3)Gal(b1-4)GlcNAc(b1-2)Man(a1-3)[Gal(b1-4)GlcNAc(b1-3)Gal(b1-4)GlcNAc(b1-3)Gal(b1-4)GlcNAc(b1-3)Gal(b1-4)GlcNAc(b1-3)Gal(b1-4)GlcNAc(b1-2)Man(a1-6)]Man(b1-4)GlcNAc(b1-4)GlcNAc
# How it was run: as §1
# [16] = target: Gal(b1-4)GlcNAc(b1-3)Gal(b1-4)GlcNAc(b1-3)Gal(b1-4)GlcNAc(b1-3)Gal(b1-4)GlcNAc(b1-3)Gal(b1-4)GlcNAc(b1-2)Man(a1-3)[Gal(b1-4)GlcNAc(b1-3)Gal(b1-4)GlcNAc(b1-3)Gal(b1-4)GlcNAc(b1-3)Gal(b1-4)GlcNAc(b1-3)Gal(b1-4)GlcNAc(b1-2)Man(a1-6)]Man(b1-4)GlcNAc(b1-4)[Fuc(a1-6)]GlcNAc
# How it was run: as §1
# [17] = target: Gal(b1-4)GlcNAc(b1-3)Gal(b1-4)GlcNAc(b1-3)Gal(b1-4)GlcNAc(b1-3)Gal(b1-4)GlcNAc(b1-3)Gal(b1-4)GlcNAc(b1-2)[Gal(b1-4)GlcNAc(b1-3)Gal(b1-4)GlcNAc(b1-3)Gal(b1-4)GlcNAc(b1-3)Gal(b1-4)GlcNAc(b1-3)Gal(b1-4)GlcNAc(b1-6)]Man(a1-6)[Gal(b1-4)GlcNAc(b1-3)Gal(b1-4)GlcNAc(b1-3)Gal(b1-4)GlcNAc(b1-3)Gal(b1-4)GlcNAc(b1-3)Gal(b1-4)GlcNAc(b1-2)Man(a1-3)]Man(b1-4)GlcNAc(b1-4)[Fuc(a1-6)]GlcNAc
# How it was run: as §1
# [18] = target: Gal(b1-4)GlcNAc(b1-3)Gal(b1-4)GlcNAc(b1-3)Gal(b1-4)GlcNAc(b1-3)Gal(b1-4)GlcNAc(b1-3)Gal(b1-4)GlcNAc(b1-3)Gal(b1-4)GlcNAc(b1-2)Man(a1-3)[Gal(b1-4)GlcNAc(b1-3)Gal(b1-4)GlcNAc(b1-3)Gal(b1-4)GlcNAc(b1-3)Gal(b1-4)GlcNAc(b1-3)Gal(b1-4)GlcNAc(b1-3)Gal(b1-4)GlcNAc(b1-2)Man(a1-6)]Man(b1-4)GlcNAc(b1-4)GlcNAc
# How it was run: as §1
# [19] = target: Gal(b1-4)GlcNAc(b1-3)Gal(b1-4)GlcNAc(b1-3)GalNAc
# How it was run: as §1
binder,measurement,setting,value
B1,glycan array binding signal (z-score),[1],-0.867
same,glycan array binding signal (z-score),[2],-0.702
same,glycan array binding signal (z-score),[3],-0.633
same,glycan array binding signal (z-score),[4],0.914
same,glycan array binding signal (z-score),[5],0.318
same,glycan array binding signal (z-score),[6],0.817
same,glycan array binding signal (z-score),[7],-0.707
same,glycan array binding signal (z-score),[8],0.036
same,glycan array binding signal (z-score),[9],-0.249
same,glycan array binding signal (z-score),[10],-0.208
same,glycan array binding signal (z-score),[11],1.61
same,glycan array binding signal (z-score),[12],-0.029
same,glycan array binding signal (z-score),[13],1.5
same,glycan array binding signal (z-score),[14],0.027
same,glycan array binding signal (z-score),[15],1.28
same,glycan array binding signal (z-score),[16],2.04
same,glycan array binding signal (z-score),[17],0.936
same,glycan array binding signal (z-score),[18],0.524
same,glycan array binding signal (z-score),[19],0.366

# Three consecutive entries from above:
binder,measurement,setting,value
B1,glycan array binding signal (z-score),[1],-0.867
same,glycan array binding signal (z-score),[2],-0.702
same,glycan array binding signal (z-score),[3],-0.633
